The list shows a part of the results. Many values rest on one well or one pass, so single values are uncertain.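 The apoptosis fraction was the count of cleaved-PARP antibody-stained nuclei relative to all DNA-stained nuclei, imaged in 1,536-well plates. Screening doses were set so most cells survived, and baseline and induced cleaved-PARP levels vary greatly across cell lines.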
Columns and labels:
Experiment in all cases: cleaved PARP positive nuclei fraction relative to DMSO control; melanoma cells; higher = more apoptosis
Conditions in all cases: library dose: low library concentration; 72 h
501Mel = test system: 501Mel
A101D = test system: A101D
A2058 = test system: A2058
A375 = test system: A375
C32 = test system: C32
CBRC008 = test system: CBRC008 (line from a melanoma biopsy)
CBRC013 = test system: CBRC013 (line from a melanoma biopsy)
CBRC014 = test system: CBRC014 (line from a melanoma biopsy)
CBRC016 = test system: CBRC016 (line from a melanoma biopsy)
CBRC017 = test system: CBRC017 (line from a melanoma biopsy)
COLO792 = test system: COLO792
COLO800 = test system: COLO800
COLO829 = test system: COLO829
G361 = test system: G361
IPC-298 = test system: IPC-298
IST-MEL1 = test system: IST-MEL1
LB2518-MEL = test system: LB2518-MEL
LOXIMVI = test system: LOXIMVI
MEL-HO = test system: MEL-HO

C[C@@H](Oc1cc(-c2cnn(C3CCNCC3)c2)cnc1N)c1c(Cl)ccc(F)c1Cl [Crizotinib] + C=CCn1c(=O)c2cnc(Nc3ccc(N4CCN(C)CC4)cc3)nc2n1-c1cccc(C(C)(C)O)n1 [MK1775] (first compound 0.2 µM, partner dose 0.02 µM)
cleaved PARP positive nuclei fraction (501Mel): 80.5%
cleaved PARP positive nuclei fraction (A101D): 211%
cleaved PARP positive nuclei fraction (A2058): 210%
cleaved PARP positive nuclei fraction (A375): 43.7%
cleaved PARP positive nuclei fraction (C32): 88.4%
cleaved PARP positive nuclei fraction (CBRC008): 160%
cleaved PARP positive nuclei fraction (CBRC013): 71.4%
cleaved PARP positive nuclei fraction (CBRC014): 135%
cleaved PARP positive nuclei fraction (CBRC016): 159%
cleaved PARP positive nuclei fraction (CBRC017): 102%
cleaved PARP positive nuclei fraction (COLO792): 83.5%
cleaved PARP positive nuclei fraction (COLO800): 71.7%
cleaved PARP positive nuclei fraction (COLO829): 71.9%
cleaved PARP positive nuclei fraction (G361): 95.2%
cleaved PARP positive nuclei fraction (IPC-298): 94.8%
cleaved PARP positive nuclei fraction (IST-MEL1): 211%
cleaved PARP positive nuclei fraction (LB2518-MEL): 123%
cleaved PARP positive nuclei fraction (LOXIMVI): 57%
cleaved PARP positive nuclei fraction (MEL-HO): 74.9%

CO[C@H]1C[C@@H]2CC[C@@H](C)[C@@](O)(O2)C(=O)C(=O)N2CCCC[C@H]2C(=O)O[C@H]([C@H](C)C[C@@H]2CC[C@@H](OCCO)[C@H](OC)C2)CC(=O)[C@H](C)/C=C(\C)[C@@H](O)[C@@H](OC)C(=O)[C@H](C)C[C@H](C)/C=C/C=C/C=C/1C [everolimus] + O=C(O)c1ccc(-c2c[nH]c3ncc(-c4ccccc4)cc23)cc1C1CCCC1 [GSK650394] (first compound 0.02 µM, partner dose 0.16 µM)
cleaved PARP positive nuclei fraction (501Mel): 139%
cleaved PARP positive nuclei fraction (A101D): 48.2%
cleaved PARP positive nuclei fraction (A2058): 141%
cleaved PARP positive nuclei fraction (A375): 357%
cleaved PARP positive nuclei fraction (C32): 72.5%
cleaved PARP positive nuclei fraction (CBRC008): 233%
cleaved PARP positive nuclei fraction (CBRC013): 80.7%
cleaved PARP positive nuclei fraction (CBRC014): 97.6%
cleaved PARP positive nuclei fraction (CBRC016): 45.1%
cleaved PARP positive nuclei fraction (CBRC017): 140%
cleaved PARP positive nuclei fraction (COLO792): 390%
cleaved PARP positive nuclei fraction (COLO800): 150%
cleaved PARP positive nuclei fraction (COLO829): 75.3%
cleaved PARP positive nuclei fraction (G361): 138%
cleaved PARP positive nuclei fraction (IPC-298): 115%
cleaved PARP positive nuclei fraction (IST-MEL1): 76.5%
cleaved PARP positive nuclei fraction (LB2518-MEL): 133%
cleaved PARP positive nuclei fraction (LOXIMVI): 72.8%
cleaved PARP positive nuclei fraction (MEL-HO): 163%

C=C(c1ccc(C(=O)O)cc1)c1cc2c(cc1C)C(C)(C)CCC2(C)C [Bexarotene] + O=C(CCCCCCC(=O)Nc1ccccc1)NO [vorinostat] (first compound 2 µM, partner dose 0.08 µM)
cleaved PARP positive nuclei fraction (501Mel): 40.8%
cleaved PARP positive nuclei fraction (A101D): 97.2%
cleaved PARP positive nuclei fraction (A2058): 86.3%
cleaved PARP positive nuclei fraction (A375): 109%
cleaved PARP positive nuclei fraction (C32): 158%
cleaved PARP positive nuclei fraction (CBRC008): 339%
cleaved PARP positive nuclei fraction (CBRC013): 73.4%
cleaved PARP positive nuclei fraction (CBRC014): 92.3%
cleaved PARP positive nuclei fraction (CBRC016): 227%
cleaved PARP positive nuclei fraction (CBRC017): 111%
cleaved PARP positive nuclei fraction (COLO792): 79.6%
cleaved PARP positive nuclei fraction (COLO800): 84.4%
cleaved PARP positive nuclei fraction (COLO829): 91.3%
cleaved PARP positive nuclei fraction (G361): 86.7%
cleaved PARP positive nuclei fraction (IPC-298): 48.1%
cleaved PARP positive nuclei fraction (IST-MEL1): 49.1%
cleaved PARP positive nuclei fraction (LB2518-MEL): 52%
cleaved PARP positive nuclei fraction (LOXIMVI): 53.7%
cleaved PARP positive nuclei fraction (MEL-HO): 69.3%

CN1CCN(c2ccc3nc(-c4c(N)c5c(F)cccc5[nH]c4=O)[nH]c3c2)CC1 [Dovitinib] + CN(NC(=O)CC(=O)NN(C)C(=S)c1ccccc1)C(=S)c1ccccc1 [STA4783] (first compound 0.1 µM, partner dose 0.006 µM)
cleaved PARP positive nuclei fraction (501Mel): 250%
cleaved PARP positive nuclei fraction (A101D): 294%
cleaved PARP positive nuclei fraction (A2058): 51%
cleaved PARP positive nuclei fraction (A375): 1260%
cleaved PARP positive nuclei fraction (C32): 122%
cleaved PARP positive nuclei fraction (CBRC008): 2130%
cleaved PARP positive nuclei fraction (CBRC013): 222%
cleaved PARP positive nuclei fraction (CBRC014): 548%
cleaved PARP positive nuclei fraction (CBRC016): 134%
cleaved PARP positive nuclei fraction (CBRC017): 175%
cleaved PARP positive nuclei fraction (COLO792): 171%
cleaved PARP positive nuclei fraction (COLO800): 29.3%
cleaved PARP positive nuclei fraction (COLO829): 80.8%
cleaved PARP positive nuclei fraction (G361): 73.4%
cleaved PARP positive nuclei fraction (IPC-298): 67.3%
cleaved PARP positive nuclei fraction (IST-MEL1): 136%
cleaved PARP positive nuclei fraction (LB2518-MEL): 119%
cleaved PARP positive nuclei fraction (LOXIMVI): 47.5%
cleaved PARP positive nuclei fraction (MEL-HO): 86.5%

Cn1c(=O)n(-c2ccc(C(C)(C)C#N)cc2)c2c3cc(-c4cnc5ccccc5c4)ccc3ncc21 + Cc1ccc(NC(=O)c2cccc(N(C)C)c2)cc1NC(=O)c1ccc(O)cc1 [ZM336372] (first compound 0.004 µM, partner dose 2 µM)
cleaved PARP positive nuclei fraction (501Mel): 79.9%
cleaved PARP positive nuclei fraction (A101D): 154%
cleaved PARP positive nuclei fraction (A2058): 100%
cleaved PARP positive nuclei fraction (A375): 117%
cleaved PARP positive nuclei fraction (C32): 124%
cleaved PARP positive nuclei fraction (CBRC008): 22.9%
cleaved PARP positive nuclei fraction (CBRC013): 59.8%
cleaved PARP positive nuclei fraction (CBRC014): 174%
cleaved PARP positive nuclei fraction (CBRC016): 136%
cleaved PARP positive nuclei fraction (CBRC017): 54.3%
cleaved PARP positive nuclei fraction (COLO792): 106%
cleaved PARP positive nuclei fraction (COLO800): 72.5%
cleaved PARP positive nuclei fraction (COLO829): 76.2%
cleaved PARP positive nuclei fraction (G361): 299%
cleaved PARP positive nuclei fraction (IPC-298): 233%
cleaved PARP positive nuclei fraction (IST-MEL1): 108%
cleaved PARP positive nuclei fraction (LB2518-MEL): 106%
cleaved PARP positive nuclei fraction (LOXIMVI): 58.9%
cleaved PARP positive nuclei fraction (MEL-HO): 166%

Nc1nc(F)nc2c1ncn2[C@@H]1O[C@H](CO)[C@@H](O)[C@@H]1O [fludarabine] + Cc1ccc(NC(=O)c2cccc(N(C)C)c2)cc1NC(=O)c1ccc(O)cc1 [ZM336372] (first compound 0.2 µM, partner dose 2 µM)
cleaved PARP positive nuclei fraction (501Mel): 522%
cleaved PARP positive nuclei fraction (A101D): 83.4%
cleaved PARP positive nuclei fraction (A2058): 125%
cleaved PARP positive nuclei fraction (A375): 16100%
cleaved PARP positive nuclei fraction (C32): 91.7%
cleaved PARP positive nuclei fraction (CBRC008): 77.9%
cleaved PARP positive nuclei fraction (CBRC013): 74.9%
cleaved PARP positive nuclei fraction (CBRC014): 128%
cleaved PARP positive nuclei fraction (CBRC016): 91.6%
cleaved PARP positive nuclei fraction (CBRC017): 91.9%
cleaved PARP positive nuclei fraction (COLO792): 83%
cleaved PARP positive nuclei fraction (COLO800): 48%
cleaved PARP positive nuclei fraction (COLO829): 50.9%
cleaved PARP positive nuclei fraction (G361): 136%
cleaved PARP positive nuclei fraction (IPC-298): 57.1%
cleaved PARP positive nuclei fraction (IST-MEL1): 37.3%
cleaved PARP positive nuclei fraction (LB2518-MEL): 113%
cleaved PARP positive nuclei fraction (LOXIMVI): 215%
cleaved PARP positive nuclei fraction (MEL-HO): 70.9%

C[C@@H](Oc1cc(-c2cnn(C3CCNCC3)c2)cnc1N)c1c(Cl)ccc(F)c1Cl [Crizotinib] + NCC(=O)Nc1ccc(-n2nc(C(F)(F)F)cc2-c2ccc3c(ccc4ccccc43)c2)cc1 [OSU03012] (first compound 0.2 µM, partner dose 1 µM)
cleaved PARP positive nuclei fraction (501Mel): 391%
cleaved PARP positive nuclei fraction (A101D): 95.5%
cleaved PARP positive nuclei fraction (A2058): 67%
cleaved PARP positive nuclei fraction (A375): 2030%
cleaved PARP positive nuclei fraction (C32): 87.1%
cleaved PARP positive nuclei fraction (CBRC008): 128%
cleaved PARP positive nuclei fraction (CBRC013): 81.8%
cleaved PARP positive nuclei fraction (CBRC014): 80%
cleaved PARP positive nuclei fraction (CBRC016): 91.5%
cleaved PARP positive nuclei fraction (CBRC017): 62.6%
cleaved PARP positive nuclei fraction (COLO792): 99.5%
cleaved PARP positive nuclei fraction (COLO800): 32.7%
cleaved PARP positive nuclei fraction (COLO829): 125%
cleaved PARP positive nuclei fraction (G361): 113%
cleaved PARP positive nuclei fraction (IPC-298): 223%
cleaved PARP positive nuclei fraction (IST-MEL1): 392%
cleaved PARP positive nuclei fraction (LB2518-MEL): 97%
cleaved PARP positive nuclei fraction (LOXIMVI): 29.4%
cleaved PARP positive nuclei fraction (MEL-HO): 79.2%

CS(=O)(=O)CCNCc1ccc(-c2ccc3ncnc(Nc4ccc(OCc5cccc(F)c5)c(Cl)c4)c3c2)o1 [lapatinib] + C=CCn1c(=O)c2cnc(Nc3ccc(N4CCN(C)CC4)cc3)nc2n1-c1cccc(C(C)(C)O)n1 [MK1775] (first compound 0.8 µM, partner dose 0.02 µM)
cleaved PARP positive nuclei fraction (501Mel): 115%
cleaved PARP positive nuclei fraction (A101D): 108%
cleaved PARP positive nuclei fraction (A2058): 104%
cleaved PARP positive nuclei fraction (A375): 168%
cleaved PARP positive nuclei fraction (C32): 87.7%
cleaved PARP positive nuclei fraction (CBRC008): 110%
cleaved PARP positive nuclei fraction (CBRC013): 117%
cleaved PARP positive nuclei fraction (CBRC014): 103%
cleaved PARP positive nuclei fraction (CBRC016): 86.7%
cleaved PARP positive nuclei fraction (CBRC017): 124%
cleaved PARP positive nuclei fraction (COLO792): 225%
cleaved PARP positive nuclei fraction (COLO800): 38.1%
cleaved PARP positive nuclei fraction (COLO829): 47.7%
cleaved PARP positive nuclei fraction (G361): 45.6%
cleaved PARP positive nuclei fraction (IPC-298): 116%
cleaved PARP positive nuclei fraction (IST-MEL1): 191%
cleaved PARP positive nuclei fraction (LB2518-MEL): 94.8%
cleaved PARP positive nuclei fraction (LOXIMVI): 51.1%
cleaved PARP positive nuclei fraction (MEL-HO): 132%

C=C(c1ccc(C(=O)O)cc1)c1cc2c(cc1C)C(C)(C)CCC2(C)C [Bexarotene] + OCCn1cc(-c2cnc3nnn(Cc4ccc5ncccc5c4)c3n2)cn1 [PF04217903] (first compound 2 µM, partner dose 1 µM)
cleaved PARP positive nuclei fraction (501Mel): 86.1%
cleaved PARP positive nuclei fraction (A101D): 66.5%
cleaved PARP positive nuclei fraction (A2058): 33.5%
cleaved PARP positive nuclei fraction (A375): 129%
cleaved PARP positive nuclei fraction (C32): 147%
cleaved PARP positive nuclei fraction (CBRC008): 226%
cleaved PARP positive nuclei fraction (CBRC013): 90.3%
cleaved PARP positive nuclei fraction (CBRC014): 84%
cleaved PARP positive nuclei fraction (CBRC016): 161%
cleaved PARP positive nuclei fraction (CBRC017): 126%
cleaved PARP positive nuclei fraction (COLO792): 134%
cleaved PARP positive nuclei fraction (COLO800): 174%
cleaved PARP positive nuclei fraction (COLO829): 176%
cleaved PARP positive nuclei fraction (G361): 79.7%
cleaved PARP positive nuclei fraction (IPC-298): 119%
cleaved PARP positive nuclei fraction (IST-MEL1): 54.8%
cleaved PARP positive nuclei fraction (LB2518-MEL): 40.4%
cleaved PARP positive nuclei fraction (LOXIMVI): 84.3%
cleaved PARP positive nuclei fraction (MEL-HO): 61.9%

— the supplement of paper PMC4604168 (melanoma cell lines)
